No constants are given. Whether binding was seen depends on the method and setting. Some results given as binding are weak or reduced against the parent protein; the word gives no strength.
Target: BaxΔC21 (UniProt Q07812)
Experiment: SPR; competition in solution: BaxΔC21 at 25 nM incubated with increasing concentrations of BH3 peptide in 10 mM HEPES, 150 mM NaCl, 3.4 mM EDTA, 0.005% Tween-20, pH 7.4 with 0.5% octylglucoside, injected onto a CM5 chip with immobilised BimBH3; Bim4E channel subtracted; IC50; both purified

The chains behind the UniProt entries cited, without tags or fusion partners. Where a name states a change or a piece, a line headed by the entry shows the natural chain unless it says otherwise. A line that says so, or that is headed by a name, gives the form on record, which may keep a tag or linker.
BaxΔC21 (Q07812, form named): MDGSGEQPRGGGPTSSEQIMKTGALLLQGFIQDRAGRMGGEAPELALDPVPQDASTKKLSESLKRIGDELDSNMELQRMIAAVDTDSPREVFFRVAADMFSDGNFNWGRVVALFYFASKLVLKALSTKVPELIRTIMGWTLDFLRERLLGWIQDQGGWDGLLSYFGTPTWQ

binding: binds
Binder: SESQEDIIRNIARHLRQVGDSMDRSIPPGLVNGL (peptide, UniProt P55957 76-109) [BidBH3 A91R]
